Results published in publication PMC5075699.
Values joined by “and” are separate entries in the source; they are usually repeats but may differ in a detail not shown here. Equal values may be shown once. The source gives many values for each of these; only a part stands here.

Tests used:
[1] = system: hAPP-J20 (J20) mice; experiment: Morris water maze #2, hAPP-J20 mice; conditions: ISRIB 2.5mpk in DMSO/PEG
[2] = system: nontransgenic (NTG) mice; experiment: Morris water maze #2, nontransgenic (NTG) mice; conditions: ISRIB 2.5mpk in DMSO/PEG
[3] = system: nontransgenic mice; experiment: Pilot Morris water maze #1 (spatial learning and memory); conditions: Fig 2A
[4] = Trial 1, individual mice (Fig 4A-D)
[5] = Trial 2, individual mice (Fig 4A-D)
[6] = Trial 3, individual mice (Fig 4A-D)
[7] = Trial 4, individual mice (Fig 4A-D)
[8] = Trial 5, individual mice (Fig 4A-D)
[9] = Trial 6, individual mice (Fig 4A-D)
[10] = Trial 7, individual mice (Fig 4A-D)
[11] = ISRIB 0.1mpk, Trial 4, individual mice
[12] = ISRIB 0.1mpk, Trial 5, individual mice
[13] = ISRIB 0.1mpk, Trial 6, individual mice
[14] = ISRIB 0.25mpk, Trial 4, individual mice
[15] = ISRIB 0.25mpk, Trial 5, individual mice
[16] = ISRIB 0.25mpk, Trial 6, individual mice

O=C(COc1ccc(Cl)cc1)NC1CCC(NC(=O)COc2ccc(Cl)cc2)CC1 (centres unmarked) [ISRIB]
Training Latency [1, 4]: 120.187 (7×) and 57.324 and 40.2402 and 38.9056 and 24.3577 and 112.112
Training Latency [1, 5]: 29.9633 and 53.1198 and 39.8398 and 120.187 (5×) and 25.9593 and 18.018 and 115.516 and 50.6506
Training Latency [1, 6]: 76.4097 and 120.187 (4×) and 119.653 and 28.9623 and 60.1268 and 40.04 and 19.4861 and 56.5899 and 35.7024
Training Latency [1, 7]: 120.187 (4×) and 8.809 and 75.5422 and 5.405 and 4.4044 and 62.4625 and 97.631 and 17.0837 and 6.673
Training Latency [1, 8]: 9.943 and 27.9613 and 120.187 (4×) and 48.3817 and 113.914 and 100.968 and 49.5829 and 8.809 and 7.007
Training Latency [1, 9]: 120.187 (4×) and 26.8268 and 81.8819 and 75.9426 and 86.1528 and 27.8946 and 3.003 and 55.5222 and 61.4615
Training Latency [1, 10]: 57.3907 and 6.2062 and 120.187 (4×) and 60.327 and 28.3617 and 7.674 and 10.8108 and 57.9913 and 41.9753
Training Latency [2, 4]: 120.187 (9×) and 101.501 and 78.1448 and 53.8539
Training Latency [2, 5]: 21.2212 and 120.187 (8×) and 120.12 and 11.5449 and 95.7624
Training Latency [2, 6]: 5.138 and 120.187 (3×) and 28.028 and 4.8048 and 4.738 and 62.9296 and 14.2142 and 44.9783 and 8.075 and 11.4781
Training Latency [2, 7]: 48.7154 and 8.408 and 5.873 and 78.1448 and 4.2042 and 120.187 (2×) and 61.6617 and 30.6974 and 4.8048 and 101.568 and 17.8178
Training Latency [2, 8]: 3.737 and 28.5619 and 40.8408 and 36.1695 and 54.3877 and 120.187 (2×) and 15.4822 and 29.8298 and 12.0787 and 2.8028 and 14.3477
Training Latency [2, 9]: 29.5629 and 12.3457 and 4.004 and 73.4067 and 19.1525 and 3.937 and 3.27 and 35.5689 and 4.671 and 35.035 and 49.5162 and 118.385
Training Latency [2, 10]: 12.9463 and 8.008 and 23.6236 and 54.2542 and 18.6853 and 3.47 and 4.071 and 23.8906 and 5.2052 and 25.292 and 14.3477 and 82.4825
Distance [3, 11]: 650.807 and 420.629 and 1636.76 and 883.886 and 1731.73
Latency [3, 11]: 37.7377 and 24.2576 and 42.5092 and 93.5269
Distance [3, 12]: 1341.81 and 699.948 and 847.159 and 1763.55 and 1150.46 and 304.987 and 381.494 and 469.803 and 108.785 and 430.196 and 1144.33 and 818.86 and 229.025 and 945.098 and 633.219
Latency [3, 12]: 58.1582 and 33.3667 and 37.0704 and 120.153 and 64.5979 and 17.017 and 29.5295 and 22.9897 and 4.771 and 22.1221 and 70.8375 and 44.9449 and 8.909 and 44.1441 and 32.0988
Distance [3, 13]: 260.293 and 214.965 and 191.256 and 557.568 and 678.487 and 393.129 and 1784.92 and 556.271 and 874.122 and 1115.97 and 139.092 and 354.939 and 445.054 and 738.774 and 116.965
Latency [3, 13]: 11.2779 and 11.6783 and 7.508 and 65.8325 and 47.047 and 21.4214 and 120.153 and 26.7267 and 34.7681 and 55.3554 and 7.474 and 20.8542 and 19.9533 and 39.5395 and 6.874
Distance [3, 14]: 2066.75 and 138.462 and 888.263 and 368.627 and 1253.81 and 1104.31 and 564.154 and 210.612 and 136.918 and 1661.81 and 1078.4 and 1565.57 and 896.6 and 308.776 and 198.869
Latency [3, 14]: 120.153 (5×) and 8.175 and 17.0837 and 55.7558 and 31.4648 and 11.011 and 7.007 and 79.3794 and 36.9036 and 17.0504 and 16.6166
Distance [3, 15]: 662.918 and 103.557 and 456.129 and 207.115 and 838.52 and 424.575 and 2434.13 and 670.464 and 143.821 and 617.072 and 478.295 and 638.17 and 467.414 and 118.041
Latency [3, 15]: 33.1665 and 5.3053 and 40.7741 and 8.075 and 34.7681 and 10 and 24.5913 and 120.153 and 32.7661 and 6.006 and 54.1542 and 25.6256 and 28.8288 and 22.5559 and 4.771
Distance [3, 16]: 178.462 and 918.246 and 95.7893 and 564.91 and 446.944 and 152.227 and 148.151 and 101.96 and 1074.16 and 283.926 and 796.318 and 498.94 and 1083.17 and 139.405 and 329.328
Latency [3, 16]: 7.941 and 37.6376 and 5.3053 and 24.3243 and 20.2536 and 8.942 and 9.243 and 5.973 and 54.7548 and 12.1455 and 120.153 and 30.4304 and 48.0147 and 6.473 and 26.2596
